Assay results as given in PubChem BioAssay AID540276 (National Center for Advancing Translational Sciences (NCATS), 2011).
Where “and” joins values, the source holds several entries; their conditions need not be identical. Equal values may be shown once. About 5,400 (1.8%) of roughly 300,000 compounds were called active. Inconclusive means that the source gave no clear call. Such entries were picked first, then a sample of the others. Calls follow the shape of the full dose curve; tested in HEK293 cells. Potencies beside an inconclusive call are fits to weak or partial responses and may not hold up.

Experiment: qHTS for inhibitors of binding or entry into cells for Marburg Virus
Conditions: Marburg virus pseudotyped entry inhibition, cell reporter; series mostly up to 37.8 µM
Potency is read from the fitted curve at half-maximal effect.

Row | Structure (SMILES) | Potency
1 | CCc1[nH]nc(C(=O)NC2CCCc3c2cnn3-c2cc(C)cc(C)c2)c1C (stereo not drawn) | active: 3.55 µM
2 | CN1C(=O)/C(=C/c2ccc(N3CCCCCC3)o2)C(=O)NC1=S | inconclusive: 4.61 µM [activator, partial curve]
3 | N#CCCN(Cc1ccncc1)C(=S)NC1CC2C=CC1C2 (stereo not drawn) | inconclusive: 11.2 µM [activator, single point]
4 | CCOc1cc(CNn2nnnc2N)ccc1OCC(=O)NC(C)(C)C | inconclusive: 25.9 µM [activator, single point]
5 | Cc1ccccc1OCCn1cc(/C(N)=N/O)c2ccccc21 | inconclusive: 20.6 µM [inhibitor, single point]
6 | CCOc1ccc(-c2n[nH]c(C)c2Oc2ccc(OC)cc2)c(O)c1 | inactive
7 | CCOC(=O)C1C(c2ccc(O)c(O)c2)NC(=S)NC1(O)C(F)(F)F (stereo not drawn) | inactive
8 | O=C(N/N=C/c1ccc(Br)cc1)c1ccccc1-n1cccc1 | inconclusive: 4.11 µM [inhibitor, partial curve, poor fit]
9 | COCCC(=O)N1CCC(Oc2ccc(C(=O)NCc3ccon3)cc2)CC1 | inactive
10 | Cc1c(C=O)c2ccccn2c1C(=O)c1ccccc1 | inactive
11 | N#Cc1c(C#N)c(SSc2c(C#N)c(C#N)c(N)n2-c2ccccc2)n(-c2ccccc2)c1N | inconclusive: 0.0891 µM [activator, full curve, poor fit]
12 | COc1ccc(C(=O)Sc2ccc(Cl)cc2)cc1OC | inactive
13 | CCOc1ccc(/C=C/c2nc(C#N)c(N3CCC(C)CC3)o2)cc1 | inconclusive: 28.2 µM [inhibitor, single point]
14 | CCC(c1nnc(SCC(=O)NCCc2ccc(Cl)cc2Cl)o1)N(C)C (stereo not drawn) | inconclusive: 15.8 µM [inhibitor, single point]
15 | Nc1nc(-c2cccs2)c(CC(=O)O)s1 | inactive
16 | COc1cccc(NC(=O)Cn2c(-c3nonc3N)nc3ccccc32)c1 | inactive
17 | O=C(CNC(=O)c1ccco1)OCc1c(F)cccc1Cl | inactive
18 | Cc1ccc2nc(CSc3nnc(Nc4ccccc4C)s3)cc(=O)n2c1 | inconclusive: 0.562 µM [inhibitor, full curve, poor fit]
19 | COc1cc(N=c2ssnc2Cl)cc(OC)c1 | inactive
20 | COc1cc(NC(=O)CCS(=O)(=O)c2ccc3c(c2)n(C)c(=O)c(=O)n3C)cc(OC)c1 | inactive
21 | CCCc1cc(=O)oc2c(C)c(OCC(=O)NC3CC(C)(C)NC(C)(C)C3)ccc12 | inconclusive: 11.2 µM [inhibitor, partial curve, poor fit]
22 | CCOc1ccc(N(CC(=O)NCCOc2ccccc2OC)S(=O)(=O)c2ccccc2)cc1 | inconclusive: 8.91 µM [inhibitor, partial curve, poor fit]
23 | COc1ccc(C(C(=O)NCc2ccccc2)N(Cc2ccco2)C(=O)c2cnccn2)cc1 (stereo not drawn) | inactive

In another format: 18 of the compounds above
Row	Structure (SMILES)	Potency
6	CCOc1ccc(-c2n[nH]c(C)c2Oc2ccc(OC)cc2)c(O)c1	inactive
7	CCOC(=O)C1C(c2ccc(O)c(O)c2)NC(=S)NC1(O)C(F)(F)F (stereo not drawn)	inactive
8	O=C(N/N=C/c1ccc(Br)cc1)c1ccccc1-n1cccc1	inconclusive: 4.11 µM [inhibitor, partial curve, poor fit]
9	COCCC(=O)N1CCC(Oc2ccc(C(=O)NCc3ccon3)cc2)CC1	inactive
10	Cc1c(C=O)c2ccccn2c1C(=O)c1ccccc1	inactive
11	N#Cc1c(C#N)c(SSc2c(C#N)c(C#N)c(N)n2-c2ccccc2)n(-c2ccccc2)c1N	inconclusive: 0.0891 µM [activator, full curve, poor fit]
12	COc1ccc(C(=O)Sc2ccc(Cl)cc2)cc1OC	inactive
13	CCOc1ccc(/C=C/c2nc(C#N)c(N3CCC(C)CC3)o2)cc1	inconclusive: 28.2 µM [inhibitor, single point]
14	CCC(c1nnc(SCC(=O)NCCc2ccc(Cl)cc2Cl)o1)N(C)C (stereo not drawn)	inconclusive: 15.8 µM [inhibitor, single point]
15	Nc1nc(-c2cccs2)c(CC(=O)O)s1	inactive
16	COc1cccc(NC(=O)Cn2c(-c3nonc3N)nc3ccccc32)c1	inactive
17	O=C(CNC(=O)c1ccco1)OCc1c(F)cccc1Cl	inactive
18	Cc1ccc2nc(CSc3nnc(Nc4ccccc4C)s3)cc(=O)n2c1	inconclusive: 0.562 µM [inhibitor, full curve, poor fit]
19	COc1cc(N=c2ssnc2Cl)cc(OC)c1	inactive
20	COc1cc(NC(=O)CCS(=O)(=O)c2ccc3c(c2)n(C)c(=O)c(=O)n3C)cc(OC)c1	inactive
21	CCCc1cc(=O)oc2c(C)c(OCC(=O)NC3CC(C)(C)NC(C)(C)C3)ccc12	inconclusive: 11.2 µM [inhibitor, partial curve, poor fit]
22	CCOc1ccc(N(CC(=O)NCCOc2ccccc2OC)S(=O)(=O)c2ccccc2)cc1	inconclusive: 8.91 µM [inhibitor, partial curve, poor fit]
23	COc1ccc(C(C(=O)NCc2ccccc2)N(Cc2ccco2)C(=O)c2cnccn2)cc1 (stereo not drawn)	inactive

(next part)

Row | Structure (SMILES) | Potency
24 | Cc1ccc(CNC(=O)CCc2c(C)nc3c4c(C)cc(C)nc4nn3c2C)cc1 | inactive
25 | CN(C)CCn1c(=O)n(C2CCCCC2)c(=O)c2c3c(sc21)CCCCC3 | inactive
26 | CCC1(O)CCC2C3CCC4=CC(=O)CCC4C3CCC21CC (stereo not drawn) | inconclusive: 0.112 µM [inhibitor, full curve, poor fit]
27 | Cc1ccc2c(c1)C1CN(C)CCC1N2C(=S)Nc1ccc(OC(F)F)cc1 (stereo not drawn) | inconclusive: 20 µM [inhibitor, partial curve, poor fit]
28 | COc1ccc(OC)c(Nc2nc(-c3sc(C)nc3C)cs2)c1 | inconclusive: 9.2 µM [inhibitor, partial curve, poor fit]
29 | COc1cccc([C@@H]2Oc3ccc(OC)cc3C(=O)[C@H]2O)c1 | inconclusive: 29.1 µM [inhibitor, single point] and inconclusive: 1.19 µM [activator, single point]
30 | Cc1ccc(-c2nnc(SCC#CCOC(=O)c3cccs3)o2)cc1 | inconclusive: 4.61 µM [activator, full curve, poor fit]
31 | O=C(OC1CCOC1=O)c1cc(-c2ccc(Cl)cc2)nc2ccccc12 (stereo not drawn) | inconclusive: 2.31 µM [activator, single point]
32 | CCOC(=O)Cn1c(=O)oc2cc(S(=O)(=O)Nc3cc(OCC)ccc3OCC)ccc21 | inconclusive: 1.16 µM [inhibitor, single point]
33 | Cc1cc(NC(=O)CSc2nc3ccccc3c(=O)n2C(C)c2ccccc2)no1 (stereo not drawn) | active: 3.16 µM
34 | Cc1cccc(Nc2ccccc2C(=O)OCC(=O)NCc2ccco2)c1C | inconclusive: 14.6 µM [inhibitor, partial curve, poor fit]
35 | COc1ccc(/C=C/C(=O)c2ccncc2)c2ccccc12 | inconclusive: 11.2 µM [inhibitor, single point]
36 | CCNc1nc(-c2ccc(Cl)cc2)cs1 | inconclusive: 1.12 µM [activator, full curve, poor fit]
37 | COc1ccccc1C(=O)COC(=O)Cn1nc(C)c([N+](=O)[O-])c1C | inactive
38 | COCCNC(=O)CSc1nc(-c2ccccc2)[nH]c1-c1ccc(C)cc1 | inconclusive: 22.4 µM [inhibitor, single point]
39 | Cc1ccc(C)c(NC(=O)c2nc(-c3ccccc3)n(-c3ccccc3)n2)c1 | inactive
40 | O=C1N=C(N2CCOCC2)S/C1=C/c1ccc(-c2ccccc2Cl)o1 | inconclusive: 6.51 µM [inhibitor, full curve]
41 | COc1cc2c(cc1NC(=O)C(C)OC(=O)C1CC(=O)N(Cc3ccco3)C1)oc1ccccc12 (stereo not drawn) | inactive
42 | Cc1ccc(C)n1-c1nnc(N2CCCC(C(=O)NCc3cccc(Br)c3)C2)s1 (stereo not drawn) | inconclusive: 35.5 µM [inhibitor, single point]
43 | O=C(/C=C/c1cccc([N+](=O)[O-])c1)N1CCN(Cc2ccc3c(c2)OCO3)CC1 | inactive
44 | COc1cc(CNc2ccc3[nH]c(=O)[nH]c3c2)cc(Br)c1OCc1ccccc1F | inconclusive: 35.5 µM [inhibitor, single point] and inconclusive: 35.5 µM [inhibitor, partial curve, poor fit]
45 | COc1cc(/C=N/NC(=O)Cc2ccc(Br)cc2)cc(OC)c1O | inactive
46 | Nc1cccc(C(=O)Nc2ccc3nc(-c4cccnc4)[nH]c3c2)c1 | inactive and inconclusive: 35.5 µM [inhibitor, single point]

Row | Structure (SMILES) | Potency
47 | Nc1c(C(=O)C2CC2)sc2nc(-c3ccccc3)cc(C(F)(F)F)c12 | inconclusive: 10.3 µM [inhibitor, partial curve, poor fit]
48 | CC1CN(S(=O)(=O)c2ccc(C(=O)Nc3nc(-c4cc5ccccc5o4)cs3)cc2)CC(C)O1 (stereo not drawn) | inconclusive: 0.562 µM [inhibitor, full curve, poor fit]
49 | COc1ccc(-n2c(SCC(=O)Nc3ccccc3)nnc2-c2ccoc2C)cc1 | inconclusive: 3.55 µM [inhibitor, single point]
50 | C[C@H](NC(N)=O)C(=O)Nc1ccc(OCc2ccccc2)cc1 | inconclusive: 0.708 µM [activator, full curve, poor fit]
51 | O=[N+]([O-])c1ccc(O)c(/C=N\N=C2c3ccccc3-c3ccccc32)c1 | active: 14.1 µM
52 | COc1ccc(C(=O)NC(C)C2CC3CCC2C3)cc1 (stereo not drawn) | inconclusive: 1.26 µM [activator, single point]
53 | Cn1c2ccccc2c2cc(C(=O)N3CCOCC3)sc21 | inactive
54 | COc1ccccc1/C=C1\NC(=S)N(CC2CCCO2)C1=O (stereo not drawn) | inactive
55 | O=C(NCCO)c1ccc2[nH]c3ccccc3c2c1 | inactive
56 | CN1CC(c2ccccn2)C2(SC(=S)N(Cc3ccccc3)C2=O)C12C(=O)Nc1ccccc12 (stereo not drawn) | inconclusive: 14.6 µM [inhibitor, partial curve, poor fit]
57 | CCN1CCN(c2cc(C)c3cc(NC(=O)/C=C/c4ccc(C)cc4)ccc3n2)CC1 | inconclusive: 5.62 µM [inhibitor, single point]
58 | Cc1c(C)[n+](=O)c(-c2cccs2)c(C)n1[O-] | inconclusive: 7.08 µM [activator, partial curve, poor fit]
59 | COC(=O)CNC(=O)/C=C/c1cc(Br)ccc1OC | inconclusive: 1.78 µM [inhibitor, partial curve, poor fit]
60 | O=C(OCC(=O)N1CCN(C(=O)c2ccco2)CC1)c1ccc(Cl)c(Cl)c1 | inactive
61 | N=c1ccn(Cc2ccc(Cl)c(Cl)c2)cc1 | inconclusive: 14.1 µM [inhibitor, partial curve, poor fit]
62 | CCCn1c(SCC(=O)c2cc(C)n(C3CC3)c2C)n[nH]c1=O | inconclusive: 35.5 µM [activator, single point]
63 | C=CC1=C(C)C2=NC1=CC1=NC(=CC3=NC(=CC4=NC(=C2)C(C)=C4CCC(=O)O)C(CCC(=O)O)=C3C)C(C=C)=C1C | inactive
64 | COc1ccc(-c2nc3ccccc3n3c(-c4ccc(OC)cc4)c4c(=O)n(C)c(=O)n(C)c4c23)cc1 | inactive
65 | CC(C)(C)C1CCC(=NNC(=O)c2cc3c(s2)CCCC3)CC1 (stereo not drawn) | inactive
66 | CCc1ccc(-n2c(=S)sc3c(=O)n(-c4ccccc4OC)c(=S)[nH]c32)cc1 | inconclusive: 1 µM [inhibitor, full curve, poor fit]
67 | COc1ccccc1N1CCN(C(=O)C2CCN(S(=O)(=O)c3ccc(F)cc3)CC2)CC1 | inconclusive: 13 µM [inhibitor, partial curve, poor fit]
68 | C/C(=N\NC(=S)NCc1ccccc1)c1ccc(C(C)(C)C)cc1 | inconclusive: 20 µM [inhibitor, single point]

Reprinted at random: 2 entries already listed, in no set order.
Row | Structure (SMILES) | Potency
37 | COc1ccccc1C(=O)COC(=O)Cn1nc(C)c([N+](=O)[O-])c1C | inactive
45 | COc1cc(/C=N/NC(=O)Cc2ccc(Br)cc2)cc(OC)c1O | inactive
